Earlier results in patent US20220016101A1 (ACADIA Pharmaceuticals Inc., priority 2018, published 2022).

Target: alpha1 adrenergic receptor
Settings: read-out: affinity (Ki) α1; other noteworthy target; literature sources; cited from earlier work

Structure (SMILES): O=c1n(CCCN2CCN(c3cccc(Cl)c3)CC2)nc2ccccn12 [TRAZ, trazodone]
- Ki: 10 to 40 nM
